From PubChem BioAssay AID720697 (Broad Institute, 2013)
The shares of active, inactive and inconclusive entries below differ from those in the screen. Activity calls are given as the source filed them.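 How the source made its calls: active means signal loss with fitted half-maximal concentration at or below twice the top valid tested dose in every test run; inconclusive means runs disagree, flat 30 to 70% signal loss, or poor fit; inactive means all runs flat, opposite direction, or potency beyond limit.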

assay: general mammalian cell viability loss – inhibitor set, cherry-pick, set 2, cytotoxicity control for miR-122 modulator project, dose response (AID 720697); conditions: HEK293T viability, CellTiter-Glo luminescence, 48 h; at 26 µM (top of the series) unless noted;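 further: 0% = median of neutral control wells and -100% = MG132 positive control wells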

Compound	activity change, negative = cytotoxicity
Cc1cc(C(=O)Nc2cccc(O)c2)co1	inactive: -23.8%
CN(C)CCCNC(=O)C[C@@H]1CC[C@H]2[C@@H](COc3ccc(NC(=O)c4cccc(F)c4)cc3C(=O)N2C)O1	inconclusive: -38.6%
COCC(=O)N(C[C@@H]1[C@@H](c2ccccc2)[C@@H](CO)N1C(=O)NC(C)C)C(C)C	inconclusive: -25.1%
COc1ccc(-c2c(C)nn3c(N)c(-c4ccccc4)cnc23)cc1OC	inactive: -25.5%
CO[C@H]1CN(C)C(=O)c2ccc(NC(C)=O)cc2OC[C@@H](C)N(C(=O)CC2CC2)C[C@H]1C	inconclusive: -43.6%
CC(=O)N1[C@H](CNC(=O)C2CC2)[C@H](c2ccc(-c3cccc(F)c3)cc2)[C@@H]1CO	inconclusive: -24.8%
CCCNC(=O)Nc1ccc2c(c1)C(=O)N(C)[C@H]1CC[C@@H](CC(=O)NCC3CCCCC3)O[C@@H]1CO2	inactive: 59.2%
CC(=O)Nc1ccc(S(=O)(=O)Nc2ccc(S(=O)(=O)Nc3nc(C)cc(C)n3)cc2)cc1	inactive: 100%
CCS(=O)(=O)Nc1ccc2c(c1)C(=O)N(C)[C@H]1CC[C@H](CC(=O)NCCCN3CCOCC3)O[C@H]1CO2	inconclusive: -24.1%
CCN(C[C@H]1[C@@H](c2ccccc2)[C@@H](CO)N1C(=O)COC)S(C)(=O)=O	inconclusive: 228%
C[C@@H]1CN([C@H](C)CO)S(=O)(=O)c2ccc(C#CC3CC3)cc2O[C@@H]1CN(C)C(=O)c1cccc(F)c1	inconclusive: -49.7%
C[C@H]1CCCCO[C@H](CN(C)Cc2ccc3c(c2)OCO3)[C@@H](C)CN([C@@H](C)CO)C(=O)c2cc(NC(=O)Nc3cccc4ccccc34)ccc2O1	inactive: 113%
COc1cccc(CNC(=O)C[C@H]2CC[C@@H]3[C@H](COc4ccc(NC(C)=O)cc4C(=O)N3C)O2)c1	inactive: 104%
COc1ccc(NC(=O)Cn2nnc(C(=O)NCc3ccccc3OC)c2N)cc1Cl	inactive: 45.7%
Cc1nn(C)cc1NC(=O)C[C@H]1CC[C@@H]2[C@H](COc3ccc(NC(=O)Nc4cccc(Cl)c4)cc3C(=O)N2C)O1	inactive: 92.5%
COc1cccc(NC(=O)C[C@@H]2CC[C@@H]3[C@@H](COc4ccc(NS(=O)(=O)c5cccc(F)c5)cc4C(=O)N3C)O2)c1	inactive: 85.1% [at 23.5 µM]
O=C(CC(F)(F)F)N1C[C@@H]2[C@H](c3ccccc31)[C@@H](CO)N2C(=O)C1CCCC1	inconclusive: -39.2%
COC(=O)C[C@H]1CC[C@@H]2[C@H](COc3ccc(NC(=O)c4cc(F)cc(F)c4)cc3C(=O)N2C)O1	inconclusive: 18%
O=C(N[C@H]1CC[C@H](CCn2cc(C3(O)CCCC3)nn2)O[C@H]1CO)c1ccccc1F	inconclusive: -55.7%
CC(C)C(=O)Nc1ccc2c(c1)C(=O)N(C)[C@@H]1CC[C@H](CC(=O)O)O[C@H]1CO2	inconclusive: -49.6%
CCC(=O)N1[C@H](CO)[C@@H](c2ccccc2)[C@@H]1CN(C)C(=O)CN1CCOCC1	inconclusive: 10.3% [at 23.5 µM]
COc1ccccc1-c1ccc2c(c1)O[C@@H](CN(C)S(=O)(=O)c1ccc(F)cc1)[C@@H](C)CN([C@@H](C)CO)S2(=O)=O	inactive: 52.6%
COc1ccc(S(=O)(=O)N(C)C[C@@H]2Oc3ncc(/C=C/c4ccccc4)cc3C(=O)N([C@@H](C)CO)C[C@@H]2C)cc1	inconclusive: -38.2%
CCCNC(=O)C[C@@H]1CC[C@@H]2[C@H](COc3ccc(NS(=O)(=O)c4ccccc4C)cc3C(=O)N2C)O1	inconclusive: -31.4%
C[C@@H]1CN([C@H](C)CO)S(=O)(=O)c2ccc(C#CC3(O)CCCC3)cc2O[C@@H]1CN(C)C(=O)c1cccnc1	inactive: 196%
C/C=C/c1ccc([C@@H]2[C@@H](CN(C(=O)COC)C(C)C)N(C(C)=O)[C@H]2CO)cc1	inconclusive: -47.3%
C[C@H]1CN([C@@H](C)CO)C(=O)c2cc(C#Cc3cccnc3)cnc2O[C@H]1CN(C)S(=O)(=O)c1ccccc1F	inactive: 38.2%
O=C(Nc1ccccc1F)N1CCCCN2[C@@H](CO)[C@@H](c3ccc(C#Cc4ccccc4)cc3)[C@@H]2C1	inconclusive: -63.1%
O=C(NC[C@@H]1[C@H](c2ccccc2)[C@@H](CO)N1Cc1cccnc1)c1ccccn1	inconclusive: 19.8%

Two entries from above, with each value named:
COCC(=O)N(C[C@@H]1[C@@H](c2ccccc2)[C@@H](CO)N1C(=O)NC(C)C)C(C)C
  activity change, negative = cytotoxicity: inconclusive: -25.1%
CC(=O)Nc1ccc(S(=O)(=O)Nc2ccc(S(=O)(=O)Nc3nc(C)cc(C)n3)cc2)cc1
  activity change, negative = cytotoxicity: inactive: 100%
